Measurements reported in the supplement of paper PMC10849652.
The other results are listed elsewhere or left out.

Chains of the proteins cited; added tags and fusions are not shown. Lines headed by an entry give the natural chain unless they say otherwise; changes in a name come on top.
UniProt Q96JC1: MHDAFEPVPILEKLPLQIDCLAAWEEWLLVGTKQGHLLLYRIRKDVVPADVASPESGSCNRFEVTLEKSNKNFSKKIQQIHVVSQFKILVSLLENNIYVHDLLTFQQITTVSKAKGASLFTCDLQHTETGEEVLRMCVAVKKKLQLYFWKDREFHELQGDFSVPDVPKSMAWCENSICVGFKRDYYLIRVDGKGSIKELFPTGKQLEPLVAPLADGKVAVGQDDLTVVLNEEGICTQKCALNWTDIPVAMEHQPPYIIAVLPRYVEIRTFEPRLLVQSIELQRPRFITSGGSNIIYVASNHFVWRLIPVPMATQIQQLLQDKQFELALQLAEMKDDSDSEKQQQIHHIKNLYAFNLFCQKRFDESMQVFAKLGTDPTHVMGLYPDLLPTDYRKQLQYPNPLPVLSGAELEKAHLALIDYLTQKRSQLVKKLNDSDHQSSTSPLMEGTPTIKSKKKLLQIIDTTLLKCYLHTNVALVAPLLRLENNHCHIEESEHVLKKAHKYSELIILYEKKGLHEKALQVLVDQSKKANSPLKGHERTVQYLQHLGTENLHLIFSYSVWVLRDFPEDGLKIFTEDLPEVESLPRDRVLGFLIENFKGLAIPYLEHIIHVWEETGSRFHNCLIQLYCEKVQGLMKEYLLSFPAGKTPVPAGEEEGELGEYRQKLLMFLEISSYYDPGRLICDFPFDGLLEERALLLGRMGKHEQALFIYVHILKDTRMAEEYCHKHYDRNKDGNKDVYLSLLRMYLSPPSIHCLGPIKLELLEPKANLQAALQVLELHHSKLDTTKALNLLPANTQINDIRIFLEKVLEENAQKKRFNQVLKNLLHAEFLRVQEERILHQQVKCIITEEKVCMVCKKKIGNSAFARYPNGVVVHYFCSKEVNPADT
UniProt P23381: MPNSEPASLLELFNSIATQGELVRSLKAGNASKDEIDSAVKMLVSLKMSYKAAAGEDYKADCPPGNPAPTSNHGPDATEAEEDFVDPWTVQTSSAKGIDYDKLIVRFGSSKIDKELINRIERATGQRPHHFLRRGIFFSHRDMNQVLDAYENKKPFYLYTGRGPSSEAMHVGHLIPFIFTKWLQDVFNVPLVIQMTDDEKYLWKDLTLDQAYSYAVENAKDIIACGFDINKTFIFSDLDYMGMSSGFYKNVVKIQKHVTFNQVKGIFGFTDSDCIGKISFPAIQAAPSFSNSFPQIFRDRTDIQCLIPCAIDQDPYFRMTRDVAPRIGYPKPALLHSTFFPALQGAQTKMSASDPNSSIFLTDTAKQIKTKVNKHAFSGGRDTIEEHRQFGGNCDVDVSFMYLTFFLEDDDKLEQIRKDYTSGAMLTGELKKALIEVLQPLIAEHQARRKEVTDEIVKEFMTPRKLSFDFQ
UniProt Q96GC9: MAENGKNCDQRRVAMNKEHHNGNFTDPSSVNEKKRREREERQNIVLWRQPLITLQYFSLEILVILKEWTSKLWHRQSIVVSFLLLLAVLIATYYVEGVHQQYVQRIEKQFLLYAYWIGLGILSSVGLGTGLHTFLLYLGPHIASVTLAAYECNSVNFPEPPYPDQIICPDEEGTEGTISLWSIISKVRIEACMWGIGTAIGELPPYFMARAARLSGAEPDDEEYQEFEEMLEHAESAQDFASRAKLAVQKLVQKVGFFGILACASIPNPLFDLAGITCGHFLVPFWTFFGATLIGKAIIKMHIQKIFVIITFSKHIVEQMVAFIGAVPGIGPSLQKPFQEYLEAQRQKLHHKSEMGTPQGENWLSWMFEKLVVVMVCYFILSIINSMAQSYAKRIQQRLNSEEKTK
UniProt Q9NP79: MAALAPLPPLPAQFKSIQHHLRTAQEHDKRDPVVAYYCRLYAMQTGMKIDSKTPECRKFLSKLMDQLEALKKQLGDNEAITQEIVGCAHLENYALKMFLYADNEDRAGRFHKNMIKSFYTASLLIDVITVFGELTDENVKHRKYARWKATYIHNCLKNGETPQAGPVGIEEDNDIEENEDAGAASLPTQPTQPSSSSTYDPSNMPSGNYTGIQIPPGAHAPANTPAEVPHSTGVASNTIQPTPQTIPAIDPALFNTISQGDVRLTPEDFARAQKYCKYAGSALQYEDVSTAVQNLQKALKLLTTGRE
UniProt Q9Y2I8: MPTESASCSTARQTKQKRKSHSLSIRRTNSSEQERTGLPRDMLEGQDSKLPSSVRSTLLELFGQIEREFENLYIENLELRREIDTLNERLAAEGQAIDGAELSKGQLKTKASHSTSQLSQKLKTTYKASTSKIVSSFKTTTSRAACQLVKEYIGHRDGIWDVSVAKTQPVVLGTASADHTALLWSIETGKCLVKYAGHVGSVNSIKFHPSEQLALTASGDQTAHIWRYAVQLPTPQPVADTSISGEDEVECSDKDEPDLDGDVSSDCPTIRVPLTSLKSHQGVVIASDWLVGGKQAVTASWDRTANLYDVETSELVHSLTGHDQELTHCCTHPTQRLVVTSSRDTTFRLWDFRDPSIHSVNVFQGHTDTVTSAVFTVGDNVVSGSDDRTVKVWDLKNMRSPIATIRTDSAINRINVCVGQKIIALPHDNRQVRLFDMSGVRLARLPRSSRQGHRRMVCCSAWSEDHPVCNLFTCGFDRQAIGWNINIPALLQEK
UniProt Q8TBZ3: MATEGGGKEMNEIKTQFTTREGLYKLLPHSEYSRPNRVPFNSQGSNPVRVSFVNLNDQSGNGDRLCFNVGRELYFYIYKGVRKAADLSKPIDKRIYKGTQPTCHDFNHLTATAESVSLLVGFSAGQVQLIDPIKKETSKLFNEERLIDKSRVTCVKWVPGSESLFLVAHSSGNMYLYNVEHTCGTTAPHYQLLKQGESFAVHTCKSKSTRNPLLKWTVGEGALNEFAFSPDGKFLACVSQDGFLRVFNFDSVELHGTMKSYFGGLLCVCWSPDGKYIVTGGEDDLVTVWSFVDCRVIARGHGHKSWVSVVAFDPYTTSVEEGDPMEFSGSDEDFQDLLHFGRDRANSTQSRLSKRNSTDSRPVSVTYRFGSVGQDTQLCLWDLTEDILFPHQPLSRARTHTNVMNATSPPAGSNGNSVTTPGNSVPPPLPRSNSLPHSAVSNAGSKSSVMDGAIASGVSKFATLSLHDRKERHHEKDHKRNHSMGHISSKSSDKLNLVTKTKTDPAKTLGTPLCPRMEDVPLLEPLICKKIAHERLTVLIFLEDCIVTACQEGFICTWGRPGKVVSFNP
UniProt Q3ZAQ7: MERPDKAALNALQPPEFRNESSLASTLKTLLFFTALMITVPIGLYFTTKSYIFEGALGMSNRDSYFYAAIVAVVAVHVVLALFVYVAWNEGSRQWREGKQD
UniProt Q96FK6: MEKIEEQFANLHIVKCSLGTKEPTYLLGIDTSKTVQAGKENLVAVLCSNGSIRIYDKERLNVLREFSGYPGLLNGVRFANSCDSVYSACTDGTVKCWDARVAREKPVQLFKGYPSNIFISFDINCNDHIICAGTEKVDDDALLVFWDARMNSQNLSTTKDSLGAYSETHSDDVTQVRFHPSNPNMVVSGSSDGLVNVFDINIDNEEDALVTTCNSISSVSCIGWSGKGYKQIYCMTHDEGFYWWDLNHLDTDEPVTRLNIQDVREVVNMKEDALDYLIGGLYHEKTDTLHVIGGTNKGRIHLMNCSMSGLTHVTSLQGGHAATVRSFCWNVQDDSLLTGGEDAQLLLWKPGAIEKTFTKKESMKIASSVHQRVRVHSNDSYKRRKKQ
UniProt Q969T9: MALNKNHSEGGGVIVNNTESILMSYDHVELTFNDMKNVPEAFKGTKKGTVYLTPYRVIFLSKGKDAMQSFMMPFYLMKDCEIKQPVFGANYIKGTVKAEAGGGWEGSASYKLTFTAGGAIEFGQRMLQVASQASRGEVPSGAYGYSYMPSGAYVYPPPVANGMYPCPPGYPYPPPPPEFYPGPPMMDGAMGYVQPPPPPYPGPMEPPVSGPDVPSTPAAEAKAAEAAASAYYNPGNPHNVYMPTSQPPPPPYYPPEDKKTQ
UniProt Q14119: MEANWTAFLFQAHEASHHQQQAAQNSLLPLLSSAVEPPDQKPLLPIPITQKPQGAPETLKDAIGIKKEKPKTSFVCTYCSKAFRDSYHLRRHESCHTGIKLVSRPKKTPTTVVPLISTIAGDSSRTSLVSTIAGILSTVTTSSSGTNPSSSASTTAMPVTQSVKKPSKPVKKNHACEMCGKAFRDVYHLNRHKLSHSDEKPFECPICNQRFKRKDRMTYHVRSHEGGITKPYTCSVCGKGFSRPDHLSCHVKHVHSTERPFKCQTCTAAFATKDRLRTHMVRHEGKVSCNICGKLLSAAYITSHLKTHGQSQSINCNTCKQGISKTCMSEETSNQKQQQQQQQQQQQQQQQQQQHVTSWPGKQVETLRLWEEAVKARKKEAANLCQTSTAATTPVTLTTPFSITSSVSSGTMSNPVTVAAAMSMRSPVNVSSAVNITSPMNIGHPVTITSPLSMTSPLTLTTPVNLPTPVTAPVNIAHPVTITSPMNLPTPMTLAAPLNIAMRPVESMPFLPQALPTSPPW
UniProt Q7Z5U6: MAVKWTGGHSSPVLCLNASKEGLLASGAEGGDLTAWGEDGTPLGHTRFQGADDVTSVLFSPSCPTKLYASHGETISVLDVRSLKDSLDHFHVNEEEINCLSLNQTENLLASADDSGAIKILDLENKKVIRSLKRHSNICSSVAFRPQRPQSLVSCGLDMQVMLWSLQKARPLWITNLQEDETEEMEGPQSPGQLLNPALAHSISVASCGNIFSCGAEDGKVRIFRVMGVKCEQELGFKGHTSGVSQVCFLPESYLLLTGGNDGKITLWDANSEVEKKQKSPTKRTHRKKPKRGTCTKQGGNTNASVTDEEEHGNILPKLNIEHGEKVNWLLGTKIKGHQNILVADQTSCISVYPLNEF
UniProt Q9BQA1, whole entry, looked up: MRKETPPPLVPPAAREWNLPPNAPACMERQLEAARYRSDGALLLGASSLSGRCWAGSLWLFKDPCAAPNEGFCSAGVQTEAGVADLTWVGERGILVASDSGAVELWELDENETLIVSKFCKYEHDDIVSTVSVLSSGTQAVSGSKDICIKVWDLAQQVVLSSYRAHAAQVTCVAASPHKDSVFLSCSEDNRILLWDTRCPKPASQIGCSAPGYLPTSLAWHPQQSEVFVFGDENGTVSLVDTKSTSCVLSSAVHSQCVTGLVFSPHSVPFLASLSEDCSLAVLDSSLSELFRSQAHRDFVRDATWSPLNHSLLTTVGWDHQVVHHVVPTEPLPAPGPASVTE
UniProt Q96EX3: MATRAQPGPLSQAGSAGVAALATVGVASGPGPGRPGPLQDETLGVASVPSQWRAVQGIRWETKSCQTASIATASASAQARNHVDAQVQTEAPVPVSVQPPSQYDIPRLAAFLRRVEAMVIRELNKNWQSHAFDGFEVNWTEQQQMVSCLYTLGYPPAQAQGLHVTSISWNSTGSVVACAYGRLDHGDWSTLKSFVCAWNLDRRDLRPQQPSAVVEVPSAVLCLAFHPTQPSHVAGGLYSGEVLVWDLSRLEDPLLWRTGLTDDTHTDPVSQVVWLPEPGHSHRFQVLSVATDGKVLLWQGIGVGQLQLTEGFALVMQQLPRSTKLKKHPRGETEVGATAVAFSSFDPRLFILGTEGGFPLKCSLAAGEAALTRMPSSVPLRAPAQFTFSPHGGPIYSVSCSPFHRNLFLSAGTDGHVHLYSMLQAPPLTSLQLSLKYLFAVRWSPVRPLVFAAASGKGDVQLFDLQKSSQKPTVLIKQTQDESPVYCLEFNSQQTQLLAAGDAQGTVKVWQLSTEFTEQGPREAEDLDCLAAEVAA
UniProt Q9H7M9, whole entry, looked up: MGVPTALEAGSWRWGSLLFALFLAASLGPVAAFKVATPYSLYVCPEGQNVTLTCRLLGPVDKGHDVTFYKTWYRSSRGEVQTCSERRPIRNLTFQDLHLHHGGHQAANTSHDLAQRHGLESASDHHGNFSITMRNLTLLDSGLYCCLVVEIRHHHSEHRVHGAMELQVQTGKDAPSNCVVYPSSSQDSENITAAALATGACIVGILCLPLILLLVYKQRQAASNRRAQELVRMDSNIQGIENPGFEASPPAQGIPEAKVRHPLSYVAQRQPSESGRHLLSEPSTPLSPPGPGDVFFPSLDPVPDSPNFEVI
UniProt Q8TF74: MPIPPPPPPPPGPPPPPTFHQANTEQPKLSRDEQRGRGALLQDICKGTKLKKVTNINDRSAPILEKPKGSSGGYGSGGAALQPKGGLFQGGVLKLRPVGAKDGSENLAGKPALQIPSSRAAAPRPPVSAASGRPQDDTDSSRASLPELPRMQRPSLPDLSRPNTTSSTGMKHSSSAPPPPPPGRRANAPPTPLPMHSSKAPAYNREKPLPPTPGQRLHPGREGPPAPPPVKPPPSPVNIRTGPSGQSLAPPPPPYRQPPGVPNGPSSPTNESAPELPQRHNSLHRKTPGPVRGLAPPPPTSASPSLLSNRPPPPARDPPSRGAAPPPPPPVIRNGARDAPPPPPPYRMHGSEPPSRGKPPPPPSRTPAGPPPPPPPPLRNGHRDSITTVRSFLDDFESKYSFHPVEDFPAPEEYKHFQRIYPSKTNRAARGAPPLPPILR

compound: C1=CC=C(C=C1)[C@H](COC2=CC3=C(C=C2)NC(=O)N3)NC(=O)C4=CC=CN(C4=O)CC5=CC(=C(C=C5)F)F; experiment: log2 fold change, soluble protein after heating vs DMSO (PISA); higher = thermal stabilisation; K562 cells, 10 uM, 30 min; active = over 0.2 and 3.5 SD of the protein, either way, in both replicates (recomputed)
Outline: (§1)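 For each measurement, 10 μM compound was applied for 30 min to K562 cells at 2×10^6 cells/mL. Aliquots were heated for 3 min across 48°C-58°C, pooled, and extracted in PBS with 0.5% NP-40 at 4°C; the supernatant after 21,000xg for 90 min was soluble protein. This was quantified by TMTpro 16plex LC-MS/MS with channel sums equalised, and thermal stability was reported relative to control samples from duplicates, on a log2 fold-change scale.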

Target | log2 fold change
VPS39 (UniProt Q96JC1) | inactive: -0.087
WDR36 (UniProt Q8NI36) | inactive: 0.033
WARS (UniProt P23381) | inactive: 0.032
WDR81 (UniProt Q562E7) | inactive: -0.132
VMP1 (UniProt Q96GC9) | inactive: 0.038
WIPI2 isoform 6 (UniProt Q9Y4P8) | inactive: -0.159
VTA1 (UniProt Q9NP79) | inactive: 0.007
WIPI1 (UniProt Q5MNZ9) | inactive: 0.036
WDR37 isoform 2 (UniProt Q9Y2I8) | inactive: 0.039
VPS37B (UniProt Q9H9H4) | inactive: -0.082
WDR20 isoform 7 (UniProt Q8TBZ3) | inactive: 0.166
VMA21 (UniProt Q3ZAQ7) | inactive: 0.063
WARS1 (UniProt G3V277) | inactive: -0.075
VMA21 isoform 2 (UniProt Q3ZAQ7) | inactive: 0.001
VGLL4 isoform 4 (UniProt Q14135) | inactive: -0.089
VIRMA (UniProt Q69YN4) | inactive: -0.107
WDR89 (UniProt Q96FK6) | inactive: 0.019
VPS35, A0A1W2PP10 | inactive: -0.043
VEGFA (UniProt H0YBI8) | inactive: 0.039
WBP2 (UniProt Q969T9) | inactive: 0.091
VEZF1 (UniProt Q14119) | inactive: 0.088
VDAC1 (UniProt C9JI87) | inactive: -0.132
WDR53 (UniProt Q7Z5U6) | inactive: 0.078
WDR46, A0A0G2JJL1 | inactive: 0.129
WDR77 (UniProt Q9BQA1) | inactive: -0.017
WDR34 (UniProt Q96EX3) | inactive: -0.039
VSIR (UniProt Q9H7M9) | inactive: 0.071
WIPF2 (UniProt Q8TF74) | inactive: 0.055

compound: CC1=C(SC2=C1C(=N[C@H](C3=NN=C(N32)C)CC(=O)N)C4=CC=C(C=C4)Cl)C; experiment: as above
Outline: as §1

Target | log2 fold change
VPS39 (UniProt Q96JC1) | inactive: 0.018
WDR36 (UniProt Q8NI36) | inactive: -0.101
WARS (UniProt P23381) | inactive: 0.013
WDR24 (UniProt Q96S15) | inactive: 0.101
VNN1 (UniProt O95497) | inactive: 0.056
VMP1 (UniProt Q96GC9) | inactive: 0.014
WIPI2 isoform 6 (UniProt Q9Y4P8) | inactive: 0.199
VTA1 (UniProt Q9NP79) | inactive: 0.062
WIPI1 (UniProt Q5MNZ9) | inactive: 0.038
WDR37 isoform 2 (UniProt Q9Y2I8) | inactive: -0.06
WDR20 isoform 7 (UniProt Q8TBZ3) | inactive: 0.004
VMA21 (UniProt Q3ZAQ7) | inactive: 0.005
VMA21 isoform 2 (UniProt Q3ZAQ7) | inactive: -0.106
VIRMA (UniProt Q69YN4) | inactive: 0.038
WDR89 (UniProt Q96FK6) | inactive: 0.093
WBP2 (UniProt Q969T9) | inactive: 0.025
VHL (UniProt P40337) | inactive: 0.006
VEZF1 (UniProt Q14119) | inactive: -0.218
VDAC1 (UniProt C9JI87) | inactive: -0.004
WDR53 (UniProt Q7Z5U6) | inactive: -0.115
WWOX (UniProt Q9NZC7) | inactive: -0.064
WDR77 (UniProt Q9BQA1) | inactive: 0.009
WDR34 (UniProt Q96EX3) | inactive: 0.162
VSIR (UniProt Q9H7M9) | inactive: -0.054
WIPF2 (UniProt Q8TF74) | inactive: -0.043

compound: CC1=C2C(=CC=C1)N=C(N(C2=O)C3=CC=CC=C3C)CN4C=NC5=C(N=CN=C54)N; experiment: as above
Outline: as §1

Target | log2 fold change
WDFY2 (UniProt Q96P53) | inactive: -0.088
VPS39 (UniProt Q96JC1) | inactive: 0.071
WDR36 (UniProt Q8NI36) | inactive: -0.092
WARS (UniProt P23381) | inactive: 0.015
VMP1 (UniProt Q96GC9) | inactive: 0.014
VTA1 (UniProt Q9NP79) | inactive: 0.104
WDR37 isoform 2 (UniProt Q9Y2I8) | inactive: 0.062
VPS37B (UniProt Q9H9H4) | inactive: 0.045
WDR20 isoform 7 (UniProt Q8TBZ3) | inactive: -0.014
VMA21 (UniProt Q3ZAQ7) | inactive: 0.031
WARS1 (UniProt G3V277) | inactive: 0.283
VGLL4 isoform 4 (UniProt Q14135) | inactive: 0.116
VCPIP1 (UniProt Q96JH7) | inactive: -0.012
WNK4 (UniProt Q96J92) | inactive: 0
WDR89 (UniProt Q96FK6) | inactive: -0.023
VPS35, A0A1W2PP10 | inactive: 0.106
VEGFA (UniProt H0YBI8) | inactive: 0.051
VPS54 (UniProt Q9P1Q0) | inactive: 0.081
WBP2 (UniProt Q969T9) | inactive: -0.012
WTAP (UniProt Q15007) | inactive: 0.002
VEZF1 (UniProt Q14119) | inactive: 0.005
WDR53 (UniProt Q7Z5U6) | inactive: 0.067
WDR46, A0A0G2JJL1 | inactive: -0.546
WDR77 (UniProt Q9BQA1) | inactive: 0.055
WDR34 (UniProt Q96EX3) | inactive: 0.042
VSIR (UniProt Q9H7M9) | inactive: 0.011
WIPF2 (UniProt Q8TF74) | inactive: 0.008
